# Results: the supplement of paper PMC10849652
# Sequences of proteins named here, by UniProt entry; tags and fusion partners are left off. A change or cut given only in a name is not applied to a line headed by its entry.
# UniProt Q9BQY4: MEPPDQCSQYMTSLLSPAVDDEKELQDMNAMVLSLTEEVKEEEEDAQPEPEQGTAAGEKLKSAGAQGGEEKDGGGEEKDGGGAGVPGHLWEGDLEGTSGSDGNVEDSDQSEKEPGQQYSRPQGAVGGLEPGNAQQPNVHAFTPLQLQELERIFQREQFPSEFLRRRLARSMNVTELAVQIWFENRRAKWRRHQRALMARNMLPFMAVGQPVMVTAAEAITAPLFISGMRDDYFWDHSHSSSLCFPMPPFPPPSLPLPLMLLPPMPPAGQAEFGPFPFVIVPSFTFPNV
# UniProt Q13546: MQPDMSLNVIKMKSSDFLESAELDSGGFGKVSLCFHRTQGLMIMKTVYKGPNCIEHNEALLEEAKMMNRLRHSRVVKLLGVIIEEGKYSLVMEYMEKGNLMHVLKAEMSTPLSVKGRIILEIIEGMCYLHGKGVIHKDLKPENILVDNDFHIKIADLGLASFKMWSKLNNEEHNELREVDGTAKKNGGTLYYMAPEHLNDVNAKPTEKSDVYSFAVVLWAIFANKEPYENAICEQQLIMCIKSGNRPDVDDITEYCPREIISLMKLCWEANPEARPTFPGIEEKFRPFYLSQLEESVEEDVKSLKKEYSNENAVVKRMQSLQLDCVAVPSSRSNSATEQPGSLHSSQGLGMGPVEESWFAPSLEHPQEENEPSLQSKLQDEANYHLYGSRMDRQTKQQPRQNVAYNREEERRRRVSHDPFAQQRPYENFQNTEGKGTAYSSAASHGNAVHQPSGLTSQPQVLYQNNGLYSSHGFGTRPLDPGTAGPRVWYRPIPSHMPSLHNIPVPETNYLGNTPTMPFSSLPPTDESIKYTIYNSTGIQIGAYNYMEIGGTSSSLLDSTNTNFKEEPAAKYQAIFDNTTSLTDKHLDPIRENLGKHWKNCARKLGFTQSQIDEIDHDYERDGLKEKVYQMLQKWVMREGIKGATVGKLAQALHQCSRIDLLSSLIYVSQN
# UniProt P35244: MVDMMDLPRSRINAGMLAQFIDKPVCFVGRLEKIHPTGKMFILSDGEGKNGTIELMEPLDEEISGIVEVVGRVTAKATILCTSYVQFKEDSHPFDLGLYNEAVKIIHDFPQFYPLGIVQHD
# UniProt Q9H871: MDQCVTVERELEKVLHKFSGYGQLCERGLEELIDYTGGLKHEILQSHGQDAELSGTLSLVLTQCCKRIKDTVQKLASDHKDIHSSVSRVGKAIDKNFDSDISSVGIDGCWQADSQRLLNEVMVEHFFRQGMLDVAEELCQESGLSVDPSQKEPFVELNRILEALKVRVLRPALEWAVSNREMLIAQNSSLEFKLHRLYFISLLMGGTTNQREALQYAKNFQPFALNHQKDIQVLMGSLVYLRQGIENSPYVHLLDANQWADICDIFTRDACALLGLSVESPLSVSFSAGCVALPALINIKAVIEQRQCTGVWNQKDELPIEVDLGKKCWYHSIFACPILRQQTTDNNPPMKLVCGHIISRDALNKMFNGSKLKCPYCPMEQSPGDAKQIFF
# UniProt Q8TDP1: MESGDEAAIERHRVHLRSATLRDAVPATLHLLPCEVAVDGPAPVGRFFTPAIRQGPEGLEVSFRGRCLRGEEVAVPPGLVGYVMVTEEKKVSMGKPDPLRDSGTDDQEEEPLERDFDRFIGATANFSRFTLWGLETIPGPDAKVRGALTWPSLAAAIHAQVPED
# UniProt O43148, whole entry, looked up: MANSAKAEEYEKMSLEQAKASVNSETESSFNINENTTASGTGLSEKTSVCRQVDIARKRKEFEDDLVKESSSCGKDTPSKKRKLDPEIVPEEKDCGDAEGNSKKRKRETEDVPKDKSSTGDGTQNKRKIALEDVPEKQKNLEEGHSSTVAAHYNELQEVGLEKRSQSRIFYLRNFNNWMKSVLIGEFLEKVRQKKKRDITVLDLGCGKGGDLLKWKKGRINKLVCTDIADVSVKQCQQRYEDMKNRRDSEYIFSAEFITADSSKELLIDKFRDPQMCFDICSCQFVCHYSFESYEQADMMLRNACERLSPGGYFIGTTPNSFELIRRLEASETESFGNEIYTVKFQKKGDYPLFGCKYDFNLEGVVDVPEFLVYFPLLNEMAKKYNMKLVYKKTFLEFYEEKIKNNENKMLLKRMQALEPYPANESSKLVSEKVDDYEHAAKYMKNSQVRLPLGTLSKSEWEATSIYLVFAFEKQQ
# UniProt Q6R327, whole entry, looked up: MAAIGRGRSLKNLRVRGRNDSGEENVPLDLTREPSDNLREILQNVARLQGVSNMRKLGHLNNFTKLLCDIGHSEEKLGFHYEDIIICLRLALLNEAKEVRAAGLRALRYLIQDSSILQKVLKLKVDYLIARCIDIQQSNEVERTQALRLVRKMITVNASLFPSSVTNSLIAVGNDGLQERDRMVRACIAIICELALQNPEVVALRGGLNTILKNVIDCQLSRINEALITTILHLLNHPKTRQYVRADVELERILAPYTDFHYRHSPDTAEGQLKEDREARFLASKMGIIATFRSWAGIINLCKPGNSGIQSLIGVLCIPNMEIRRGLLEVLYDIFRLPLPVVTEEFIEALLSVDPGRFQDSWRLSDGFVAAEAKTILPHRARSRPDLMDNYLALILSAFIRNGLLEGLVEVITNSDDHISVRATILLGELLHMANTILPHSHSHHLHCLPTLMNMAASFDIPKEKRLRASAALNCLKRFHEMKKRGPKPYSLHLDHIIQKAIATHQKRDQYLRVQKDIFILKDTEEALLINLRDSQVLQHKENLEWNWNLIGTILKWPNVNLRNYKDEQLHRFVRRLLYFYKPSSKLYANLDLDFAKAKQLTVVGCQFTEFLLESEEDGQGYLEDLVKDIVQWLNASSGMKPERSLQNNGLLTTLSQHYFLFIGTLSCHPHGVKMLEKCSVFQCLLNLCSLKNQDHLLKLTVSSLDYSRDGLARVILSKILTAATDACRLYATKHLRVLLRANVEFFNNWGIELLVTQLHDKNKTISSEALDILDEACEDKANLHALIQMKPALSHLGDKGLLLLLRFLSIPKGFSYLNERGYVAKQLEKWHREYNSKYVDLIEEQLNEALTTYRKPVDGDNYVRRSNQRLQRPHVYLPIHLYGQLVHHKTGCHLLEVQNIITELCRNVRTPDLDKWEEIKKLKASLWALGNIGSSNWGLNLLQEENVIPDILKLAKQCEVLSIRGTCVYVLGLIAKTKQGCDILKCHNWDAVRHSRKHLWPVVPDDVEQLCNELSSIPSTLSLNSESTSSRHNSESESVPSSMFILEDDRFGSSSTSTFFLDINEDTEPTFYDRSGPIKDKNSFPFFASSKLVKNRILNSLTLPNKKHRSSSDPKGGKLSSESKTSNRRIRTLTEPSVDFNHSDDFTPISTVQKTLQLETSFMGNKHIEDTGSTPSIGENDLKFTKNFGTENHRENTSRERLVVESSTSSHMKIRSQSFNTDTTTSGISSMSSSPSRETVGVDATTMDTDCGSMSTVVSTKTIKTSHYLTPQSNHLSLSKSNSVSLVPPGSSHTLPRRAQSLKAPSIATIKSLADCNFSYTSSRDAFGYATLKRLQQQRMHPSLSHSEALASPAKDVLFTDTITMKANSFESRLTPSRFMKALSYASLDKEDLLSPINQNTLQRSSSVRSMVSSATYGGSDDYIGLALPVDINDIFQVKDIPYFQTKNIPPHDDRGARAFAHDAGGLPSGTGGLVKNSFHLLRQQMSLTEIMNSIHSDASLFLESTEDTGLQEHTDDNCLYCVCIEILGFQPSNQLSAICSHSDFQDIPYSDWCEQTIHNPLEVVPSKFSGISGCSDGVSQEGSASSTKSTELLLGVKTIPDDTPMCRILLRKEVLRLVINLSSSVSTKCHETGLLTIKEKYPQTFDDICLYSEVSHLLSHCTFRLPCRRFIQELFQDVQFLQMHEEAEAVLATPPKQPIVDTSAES
# UniProt P27694, whole entry, looked up: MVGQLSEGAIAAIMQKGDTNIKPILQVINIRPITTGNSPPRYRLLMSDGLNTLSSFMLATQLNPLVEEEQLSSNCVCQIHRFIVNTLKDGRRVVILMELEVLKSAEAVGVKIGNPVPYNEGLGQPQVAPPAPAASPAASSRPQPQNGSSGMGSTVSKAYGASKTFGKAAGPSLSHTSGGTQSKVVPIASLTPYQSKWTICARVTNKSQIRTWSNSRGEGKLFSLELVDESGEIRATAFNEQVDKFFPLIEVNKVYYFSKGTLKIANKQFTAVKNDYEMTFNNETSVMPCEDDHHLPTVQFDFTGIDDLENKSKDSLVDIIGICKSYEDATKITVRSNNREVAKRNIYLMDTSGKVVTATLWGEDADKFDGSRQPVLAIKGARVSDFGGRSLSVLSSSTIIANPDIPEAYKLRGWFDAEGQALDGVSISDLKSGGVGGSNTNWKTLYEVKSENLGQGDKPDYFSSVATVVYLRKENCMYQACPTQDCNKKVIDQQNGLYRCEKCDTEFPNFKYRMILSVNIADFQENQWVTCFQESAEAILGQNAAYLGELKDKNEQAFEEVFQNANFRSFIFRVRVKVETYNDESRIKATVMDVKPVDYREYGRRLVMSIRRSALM
# UniProt Q9BVS4: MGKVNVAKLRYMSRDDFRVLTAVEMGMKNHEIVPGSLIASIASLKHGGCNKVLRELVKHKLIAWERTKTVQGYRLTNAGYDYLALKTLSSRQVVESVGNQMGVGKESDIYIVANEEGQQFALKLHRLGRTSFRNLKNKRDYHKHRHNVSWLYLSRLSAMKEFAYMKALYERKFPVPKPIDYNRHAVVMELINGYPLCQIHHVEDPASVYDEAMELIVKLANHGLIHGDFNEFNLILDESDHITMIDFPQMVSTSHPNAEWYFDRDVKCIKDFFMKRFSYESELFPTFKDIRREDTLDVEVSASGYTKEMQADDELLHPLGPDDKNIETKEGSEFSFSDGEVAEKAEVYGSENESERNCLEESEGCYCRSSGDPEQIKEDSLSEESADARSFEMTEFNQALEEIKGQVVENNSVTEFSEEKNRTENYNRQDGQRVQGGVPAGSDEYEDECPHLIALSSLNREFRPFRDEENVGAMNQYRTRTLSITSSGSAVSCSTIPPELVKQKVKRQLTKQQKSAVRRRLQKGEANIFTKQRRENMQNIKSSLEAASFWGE
# UniProt Q8IXI2: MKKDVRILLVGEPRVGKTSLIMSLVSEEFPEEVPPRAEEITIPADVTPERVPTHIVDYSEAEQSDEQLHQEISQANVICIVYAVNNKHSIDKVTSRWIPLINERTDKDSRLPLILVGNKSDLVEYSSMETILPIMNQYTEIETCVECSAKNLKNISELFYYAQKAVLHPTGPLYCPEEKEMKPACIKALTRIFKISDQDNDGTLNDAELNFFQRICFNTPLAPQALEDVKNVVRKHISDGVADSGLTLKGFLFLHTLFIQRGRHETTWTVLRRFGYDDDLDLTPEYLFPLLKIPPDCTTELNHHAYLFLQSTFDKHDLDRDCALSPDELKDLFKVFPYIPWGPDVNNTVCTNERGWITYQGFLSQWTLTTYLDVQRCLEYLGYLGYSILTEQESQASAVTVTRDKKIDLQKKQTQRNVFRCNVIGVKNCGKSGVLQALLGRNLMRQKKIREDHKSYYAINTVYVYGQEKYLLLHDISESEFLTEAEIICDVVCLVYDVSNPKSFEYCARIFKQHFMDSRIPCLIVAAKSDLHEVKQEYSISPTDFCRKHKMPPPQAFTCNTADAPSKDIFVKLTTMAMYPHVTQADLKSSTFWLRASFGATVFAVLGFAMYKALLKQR
# UniProt Q9BRS2: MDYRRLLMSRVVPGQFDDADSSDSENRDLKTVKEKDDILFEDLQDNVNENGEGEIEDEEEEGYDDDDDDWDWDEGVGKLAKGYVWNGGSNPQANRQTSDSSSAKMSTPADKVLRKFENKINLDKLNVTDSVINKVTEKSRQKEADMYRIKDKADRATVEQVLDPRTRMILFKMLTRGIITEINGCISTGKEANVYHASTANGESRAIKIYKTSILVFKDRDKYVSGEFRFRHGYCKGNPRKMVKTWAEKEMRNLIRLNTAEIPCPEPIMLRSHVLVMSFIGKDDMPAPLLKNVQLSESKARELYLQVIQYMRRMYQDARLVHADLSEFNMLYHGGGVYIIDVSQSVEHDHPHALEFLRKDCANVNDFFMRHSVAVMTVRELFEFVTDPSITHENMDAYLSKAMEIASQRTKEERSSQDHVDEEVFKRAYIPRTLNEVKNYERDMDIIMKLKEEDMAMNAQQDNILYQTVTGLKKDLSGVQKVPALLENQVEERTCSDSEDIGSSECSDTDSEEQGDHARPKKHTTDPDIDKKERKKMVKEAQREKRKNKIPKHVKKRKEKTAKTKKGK
# This is one part of the list.
# Legend:
# Test in all cases: log2 fold change, soluble protein after heating vs DMSO (PISA); higher = thermal stabilisation; K562 lysate, 10 uM; active = over 0.2 and 3.5 SD of the protein, either way, in both replicates (recomputed)
# erlotinib = compound: C#Cc1cccc(Nc2ncnc3cc(OCCOC)c(OCCOC)cc23)c1 [erlotinib]
# Summary of the method: (§1)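 Values give the log-two fold change in thermal stability against solvent controls, from duplicates. Crude K562 extract at 1 mg/mL protein, made by dounce homogenisation in PBS pH 7.4 with 1 mM MgCl2, was treated with 10 μM compound for 30 min. After 3 min heating across 48°C-58°C, aliquots were pooled, adjusted to 0.5% NP-40 at 4°C and centrifuged at 21,000xg for 90 min. The supernatant was measured by TMTpro 16plex LC-MS/MS with channel sums equalised.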
# [1] = compound: C/C(=N\NC(=O)C1=CC(=CC=C1)S(=O)(=O)N2CCOCC2)/C3=C(C=CC(=C3)Cl)O
# Summary of the method: as §1
# [2] = compound: C1=CC(=CC=C1C2=NC3=C(N2)C=C(C=C3)C(=O)N)OC4=CC=C(C=C4)Cl
# Summary of the method: as §1
# [3] = compound: C1=CC2=C(C=CC(=C2)/C=C\3/C(=O)NC(=NCC4=CC=CS4)S3)N=C1
# Summary of the method: as §1
# [4] = compound: C1=CC2=NC=CN=C2C=C1/C=C/3\C(=O)NC(=O)S3
# Summary of the method: as §1
# [5] = compound: C1=CC=C(C=C1)C2=NC(=C(N2)C3=CC=NC=C3)C4=CC(=C(C=C4)Cl)O
# Summary of the method: as §1
# [6] = compound: C1=CC=C2C(=C1)C3=NNC4=CC=CC(=C43)C2=O
# Summary of the method: as §1
# [7] = compound: C1CCN(C1)C(=O)NC2=CC=CC(=C2)NC3=NC=C(C(=N3)NCCC4=CN=CN4)Br
# Summary of the method: as §1
# [8] = compound: C1CN(CCC1(CC2=CC=C(C=C2)Cl)N)C3=NC=NC4=C3C=CN4
# Summary of the method: as §1
# IRAK-1-4 Inhibitor I = compound: C1COCCN1CCN2C3=CC=CC=C3N=C2NC(=O)C4=CC(=CC=C4)[N+](=O)[O-] [IRAK-1-4 Inhibitor I]
# Summary of the method: as §1
# ibrutinib = compound: C=CC(=O)N1CCC[C@@H](n2nc(-c3ccc(Oc4ccccc4)cc3)c3c(N)ncnc32)C1 [ibrutinib]
# Summary of the method: as §1
# [9] = compound: CC(=O)c1cnc2ccc(-c3cc(Cl)c(O)c(Cl)c3)nc2c1N[C@H]1CC[C@H](CN(C)C)CC1
# Summary of the method: as §1
# ralimetinib = compound: CC(C)(C)Cn1c(N)nc2ccc(-c3[nH]c(C(C)(C)C)nc3-c3ccc(F)cc3)nc21 [ralimetinib]
# Summary of the method: as §1
# [10] = compound: CC(C)(O)CC(=O)NCCn1ccc2ncnc(Nc3ccc(Oc4cccc(C(F)(F)F)c4)c(Cl)c3)c21
# Summary of the method: as §1
# [11] = compound: CC(C)C1=C2N=C(C=C(N2N=C1)NCC3=CC=CC=C3)NCCCCCCN
# Summary of the method: as §1
# [12] = compound: CC1=C(C(CC(=O)N1)C2=CC=C(C=C2)C(F)(F)F)C(=O)NC3=C(C=C4C(=C3)C=NN4)F
# Summary of the method: as §1
# [13] = compound: CC1=C(C2=C(C=C1)C(=O)C3=CC=CC=C3N2CCCN)C
# Summary of the method: as §1
# [14] = compound: CC1=C(C=C(C=C1)NC(=O)C2=CC(=CC=C2)C(C)(C)C#N)NC3=CC4=C(C=C3)N=CN(C4=O)C
# Summary of the method: as §1
# [15] = compound: CC1=C(C=C(C=C1)NC(=O)C2=CC(=CC=C2)N(C)C)NC(=O)C3=CC=C(C=C3)O
# Summary of the method: as §1
# [16] = compound: CC1=CC=C(C=C1)SC2=C3C=C(SC3=CN=C2)C(=O)N
# Summary of the method: as §1
Target,log2 fold change (erlotinib),log2 fold change [1],log2 fold change [2],log2 fold change [3],log2 fold change [4],log2 fold change [5],log2 fold change [6],log2 fold change [7],log2 fold change [8],log2 fold change (IRAK-1-4 Inhibitor I),log2 fold change (ibrutinib),log2 fold change [9],log2 fold change (ralimetinib),log2 fold change [10],log2 fold change [11],log2 fold change [12],log2 fold change [13],log2 fold change [14],log2 fold change [15],log2 fold change [16]
RHOXF2 (UniProt Q9BQY4),inactive: -0.014,inactive: 0.011,inactive: 0.029,inactive: -0.017,inactive: -0.003,inactive: -0.001,inactive: -0.093,inactive: 0.021,inactive: 0.108,inactive: 0.014,inactive: 0.027,inactive: -0.078,inactive: -0.01,inactive: -0.061,inactive: -0.011,inactive: 0,inactive: -0.026,inactive: -0.097,inactive: -0.004,inactive: -0.032
RPL10 (UniProt F8W7C6),inactive: 0.027,inactive: -0.17,inactive: -0.016,inactive: -0.092,inactive: 0.036,inactive: -0.132,inactive: -0.131,inactive: 0.017,inactive: -0.005,inactive: -0.079,inactive: 0.014,inactive: 0.023,inactive: 0.067,inactive: -0.155,inactive: -0.024,inactive: -0.032,inactive: -0.154,inactive: -0.004,inactive: -0.055,inactive: -0.061
"RNF213, A0A0A0MTC1",inactive: 0.041,inactive: 0.004,inactive: 0,inactive: 0.042,inactive: 0.015,inactive: 0.021,inactive: -0.045,inactive: -0.005,inactive: 0.047,inactive: 0.025,inactive: 0.015,inactive: 0.006,inactive: -0.001,inactive: -0.014,inactive: 0.007,inactive: 0.014,inactive: 0.008,inactive: 0.014,inactive: 0.042,inactive: 0.022
RPL34 (UniProt P49207),inactive: -0.023,inactive: -0.307,inactive: -0.006,inactive: -0.009,inactive: -0.003,inactive: -0.02,inactive: 0.043,inactive: 0.045,inactive: -0.018,inactive: -0.017,inactive: -0.007,inactive: -0.005,inactive: 0.016,inactive: 0.002,inactive: 0.006,inactive: -0.01,inactive: -0.029,inactive: -0.007,inactive: -0.019,inactive: -0.001
RIPK1 (UniProt Q13546),inactive: -0.026,inactive: -0.01,inactive: -0.017,inactive: -0.022,inactive: -0.015,inactive: 0.008,inactive: 0.08,inactive: 0.031,inactive: -0.057,inactive: 0,inactive: -0.02,inactive: -0.025,inactive: -0.009,inactive: -0.011,inactive: 0.018,inactive: 0.001,inactive: -0.013,inactive: 0.001,inactive: -0.02,inactive: 0.003
RPA3 (UniProt P35244),inactive: -0.001,inactive: -0.05,inactive: 0.007,inactive: 0.038,inactive: 0.003,inactive: 0.007,inactive: 0.04,inactive: -0.031,inactive: 0.021,inactive: -0.035,inactive: 0.043,inactive: -0.038,inactive: -0.009,inactive: -0.01,inactive: -0.001,inactive: -0.035,inactive: 0.038,inactive: -0.033,inactive: -0.01,inactive: 0.011
RMND5A (UniProt Q9H871),inactive: 0.014,inactive: -0.029,inactive: 0.016,inactive: 0.002,inactive: -0.078,inactive: -0.011,inactive: -0.014,inactive: -0.005,inactive: -0.017,inactive: 0,inactive: 0.047,inactive: -0.035,inactive: -0.013,inactive: 0.019,inactive: -0.038,inactive: -0.012,inactive: 0,inactive: 0.005,inactive: 0.005,inactive: 0.003
RNASEH2C (UniProt Q8TDP1),inactive: 0.011,inactive: -0.009,inactive: 0,inactive: -0.009,inactive: 0.025,inactive: -0.004,inactive: 0.007,inactive: 0.016,inactive: -0.009,inactive: -0.053,inactive: 0.015,inactive: 0.018,inactive: 0.072,inactive: 0.056,inactive: -0.062,inactive: -0.038,inactive: 0.023,inactive: 0.007,inactive: 0.011,inactive: 0.008
RNMT isoform 2 (UniProt O43148),inactive: -0.002,inactive: 0.001,inactive: 0.032,inactive: 0.038,inactive: 0.007,inactive: -0.003,inactive: -0.043,inactive: -0.025,inactive: 0.008,inactive: -0.022,inactive: -0.01,inactive: -0.024,inactive: -0.012,inactive: -0.026,inactive: -0.09,inactive: 0.007,inactive: 0.013,inactive: 0.018,inactive: 0.034,inactive: 0.003
RPL31 (UniProt P62899),inactive: -0.018,inactive: -0.097,inactive: -0.03,inactive: -0.01,inactive: 0.001,inactive: 0,inactive: 0.038,inactive: 0.043,inactive: -0.039,inactive: 0.026,inactive: -0.031,inactive: -0.011,inactive: 0.009,inactive: -0.022,inactive: 0.003,inactive: -0.06,inactive: -0.043,inactive: -0.013,inactive: -0.021,inactive: 0.016
RICTOR isoform 3 (UniProt Q6R327),inactive: -0.142,inactive: 0.238,inactive: 0.05,inactive: -0.192,inactive: 0.252,inactive: 0,inactive: 0.086,inactive: -0.009,inactive: -0.033,inactive: 0.001,inactive: 0.272,inactive: -0.008,inactive: 0,inactive: -0.046,inactive: -0.138,inactive: 0.028,inactive: 0.071,inactive: 0.022,inactive: 0.039,inactive: -0.054
RPA1 (UniProt P27694),inactive: 0.014,inactive: -0.055,inactive: 0.019,inactive: -0.004,inactive: 0.005,inactive: -0.003,inactive: 0.009,inactive: -0.006,inactive: 0.009,inactive: -0.005,inactive: 0.015,inactive: -0.028,inactive: 0.012,inactive: -0.032,inactive: -0.01,inactive: -0.011,inactive: 0.007,inactive: 0.012,inactive: 0.007,inactive: -0.02
RPL32 (UniProt P62910),inactive: -0.008,inactive: 0.068,inactive: -0.002,inactive: 0.056,inactive: -0.031,inactive: 0.02,inactive: 0.097,inactive: 0.101,inactive: 0.012,inactive: 0.009,inactive: -0.008,inactive: 0,inactive: 0.008,inactive: -0.005,inactive: 0.024,inactive: 0.001,inactive: 0.007,inactive: -0.034,inactive: -0.011,inactive: 0.058
RIOK2 (UniProt Q9BVS4),inactive: -0.018,inactive: -0.045,inactive: -0.015,inactive: 0.07,inactive: 0.038,inactive: 0.029,active: 0.395,inactive: -0.01,inactive: -0.019,inactive: -0.005,inactive: -0.012,active: 0.512,inactive: 0.026,inactive: -0.014,inactive: -0.021,inactive: -0.018,inactive: -0.011,inactive: -0.016,inactive: 0.013,inactive: 0.052
RHOT1 isoform 3 (UniProt Q8IXI2),inactive: 0.022,inactive: 0.083,inactive: 0.018,inactive: -0.038,inactive: -0.021,inactive: 0.006,inactive: -0.131,inactive: 0.011,inactive: 0.065,inactive: 0.017,inactive: -0.009,inactive: -0.036,inactive: -0.02,inactive: -0.017,inactive: 0.027,inactive: 0.012,inactive: 0.006,inactive: -0.011,inactive: 0.054,inactive: 0.006
RIOK1 (UniProt Q9BRS2),inactive: -0.033,inactive: -0.029,inactive: 0.034,inactive: 0.209,active: 0.393,inactive: 0.128,active: 0.4,inactive: -0.024,inactive: 0.028,inactive: -0.02,inactive: 0.006,inactive: 0.251,inactive: 0.002,inactive: -0.003,inactive: -0.005,inactive: 0.004,inactive: -0.009,inactive: 0.015,inactive: -0.009,inactive: 0.249

# No new results follow: an excerpt of the list.
Target,log2 fold change (erlotinib),log2 fold change [1],log2 fold change [2],log2 fold change [3],log2 fold change [4],log2 fold change [5],log2 fold change [6],log2 fold change [7],log2 fold change [8],log2 fold change (IRAK-1-4 Inhibitor I),log2 fold change (ibrutinib),log2 fold change [9],log2 fold change (ralimetinib),log2 fold change [10],log2 fold change [11],log2 fold change [12],log2 fold change [13],log2 fold change [14],log2 fold change [15],log2 fold change [16]
RIPK1 (UniProt Q13546),inactive: -0.026,inactive: -0.01,inactive: -0.017,inactive: -0.022,inactive: -0.015,inactive: 0.008,inactive: 0.08,inactive: 0.031,inactive: -0.057,inactive: 0,inactive: -0.02,inactive: -0.025,inactive: -0.009,inactive: -0.011,inactive: 0.018,inactive: 0.001,inactive: -0.013,inactive: 0.001,inactive: -0.02,inactive: 0.003
RPA3 (UniProt P35244),inactive: -0.001,inactive: -0.05,inactive: 0.007,inactive: 0.038,inactive: 0.003,inactive: 0.007,inactive: 0.04,inactive: -0.031,inactive: 0.021,inactive: -0.035,inactive: 0.043,inactive: -0.038,inactive: -0.009,inactive: -0.01,inactive: -0.001,inactive: -0.035,inactive: 0.038,inactive: -0.033,inactive: -0.01,inactive: 0.011
RMND5A (UniProt Q9H871),inactive: 0.014,inactive: -0.029,inactive: 0.016,inactive: 0.002,inactive: -0.078,inactive: -0.011,inactive: -0.014,inactive: -0.005,inactive: -0.017,inactive: 0,inactive: 0.047,inactive: -0.035,inactive: -0.013,inactive: 0.019,inactive: -0.038,inactive: -0.012,inactive: 0,inactive: 0.005,inactive: 0.005,inactive: 0.003
